In paper PMC9000499, “New Triazolyl N^N Bidentate Rh(III), Ir(III), Ru(II) and Os(II) Complexes: Synthesis and Characterization, Probing Possible Relations between Cytotoxicity with Transfer Hydrogenation Efficacy and Interaction with Model Biomolecules” (Molecules, 2022):
Several values for one entry are separate records, joined by “and”; a condition that tells them apart may be missing. Equal values may be shown once.

Test system: kidney cancer cells (HEK293)
Experiment: MTS in vitro cytotoxicity assay, HEK293
Type: cell-based
Conditions: EC50 against BHK21 divided by EC50 against HEK293
Text: The absorbance is directly proportional to cell viability.

**Q.** `CC(=O)OC[C@H]1O[C@@H]([S-])[C@H](OC(C)=O)[C@@H](OC(C)=O)[C@@H]1OC(C)=O.CCP(CC)CC.[Au+]` [Auranofin, reference compound] was tested. Which “SI (selectivity index)” value did it give?
**A.** ≤1

**Q.** Which “SI (selectivity index)” value does the source give for `Cc1ccc(C(C)C)cc1.F[B-](F)(F)F.[Cl-].[Ru+2].c1ccc(Cn2cc(-c3ccccn3)nn2)cc1` [Complex C1, [Chlorido(2-(1-benzyl-(3-κN)-1,2,3-triazol-4-yl)-(2′-κN)-pyridine)(η^6-p-cymene)ruthenium(II)] tetrafluoroborate] here?
**A.** <1

**Q.** For `Cc1ccc(C(C)C)cc1.[Cl-].[Ru+2].c1ccc(Cn2cc(-c3ccccn3)nn2)cc1.c1ccc([B-](c2ccccc2)(c2ccccc2)c2ccccc2)cc1` [Complex C2, [Chlorido(2-(1-benzyl-(3-κN)-1,2,3-triazol-4-yl)-(2′-κN)-pyridine)(η^6-p-cymene)ruthenium(II)] tetraphenylborate], which “SI (selectivity index)” value is on record?
**A.** > 10 and 14

**Q.** How did the “SI (selectivity index)” value turn out when `Cc1ccc(C(C)C)cc1.F[B-](F)(F)F.[Cl-].[Os+2].c1ccc(Cn2cc(-c3ccccn3)nn2)cc1` [Complex C3, [Chlorido(2-(1-benzyl-(3-κN)-1,2,3-triazol-4-yl)-(2′-κN)-pyridine)(η^6-p-cymene)osmium(II)] tetrafluoroborate] was run?
**A.** ≤1

**Q.** How did the “SI (selectivity index)” value turn out when `Cc1c(C)c(C)[c-](C)c1C.F[B-](F)(F)F.[Cl-].[Rh+3].c1ccc(Cn2cc(-c3ccccn3)nn2)cc1` [Complex C4, [Chlorido(2-(1-benzyl-(3-κN)-1,2,3-triazol-4-yl)-(2′-κN)-pyridine)(η^6-pentamethylcypentadiene)rhodium(III)] tetrafluoroborate] was run?
**A.** ≤1

**Q.** `Cc1c(C)c(C)[c-](C)c1C.F[B-](F)(F)F.[Cl-].[Ir+3].c1ccc(Cn2cc(-c3ccccn3)nn2)cc1` [Complex C5, [Chlorido(2-(1-benzyl-(3-κN)-1,2,3-triazol-4-yl)-(2′-κN)-pyridine)(η^6-pentamethylcypentadiene)iridium(III)] tetrafluoroborate] was tested. Which “SI (selectivity index)” value did it give?
**A.** <1

**Q.** With `Cc1ccc(C(C)C)cc1.[Cl-].[Ru+2].c1ccc(Cn2cc(-c3ccccn3)nn2)nc1.c1ccc([B-](c2ccccc2)(c2ccccc2)c2ccccc2)cc1` [Complex C7, [Chlorido(2-((4-(pyridine-2-yl)-(3-κN)-1,2,3-trizol-1-yl)methyl)-(2′-κN)-pyridine)(η^6-p-cymene)ruthenium(II)] tetraphenylborate] as the compound, how does the “SI (selectivity index)” value read?
**A.** 4

**Q.** For `Cc1ccc(C(C)C)cc1.F[B-](F)(F)F.[Cl-].[Os+2].c1ccc(Cn2cc(-c3ccccn3)nn2)nc1` [Complex C8, [Chlorido(2-((4-(pyridine-2-yl)-(3-κN)-1,2,3-trizol-1-yl)methyl)-(2′-κN)-pyridine)(η^6-p-cymene)osmium(II)] tetrafluoroborate], which “SI (selectivity index)” value is on record?
**A.** ≤1

**Q.** Which “SI (selectivity index)” value does the source give for `Cc1c(C)c(C)[c-](C)c1C.F[B-](F)(F)F.[Cl-].[Ir+3].c1ccc(Cn2cc(-c3ccccn3)nn2)nc1` [Complex C11, [Chlorido(2-((4-(pyridine-2-yl)-(3-κN)-1,2,3-trizol-1-yl)methyl)-(2′-κN)-pyridine)(η^6-pentamethylcypentadiene)iridium(III)] tetrafluoroborate] here?
**A.** > 10
